The test system of this series is CB14 transgenic plant (Cel1 signal peptide + BGL1). In words: SPMI-GC/MS analysis of flavor compounds in transgenic tobacco leaf extract, line CB14. The settings on record: leaf extract incubated 9 hours at 37° C. Also noted: species or system Nicotiana tabacum cv. Samson; key: “−” means no significant difference in concentration compared with wild type.; “+” means significant increase compared with the wild type.; “−−” means significant decrease compared with the wild type.; “++” means significant increase compared with a respective mark “+”.

Each structure is given as a SMILES string.

Take `CCCCCC=O` [Hexanal]: the “concentration of flavor compound in CB14 compared with wild type” value (shortened to “concentration … compared with wild type”) is on record as “−^a”.
Take `CC1=C(C=CCC=O)C(C)(C)CCC1` [4-[2,6,6-trimethyl-1-cyclohexen-1-yl]3-Buten-1-one]: the “concentration … compared with wild type” value is given as “+”.
To `Oc1ccc2ncccc2c1` [6-Quinolinol] belongs “−”; to `C=C(C)[C@H]1CC=C(C)CC1` [Limonene], “++”.
For `CC(C)=CCC/C(C)=C\CO` [Nerol], the “concentration … compared with wild type” value is “−”.
In the case of `CCCC=CC=O` [2-Hexenal] it was “−”.
With `CCCCC(CC)CO` (stereo not shown) [2-ethyl-1-pexanol], the “concentration … compared with wild type” value is “−”.
In the case of `CC1CCC(C(C)C)C(O)C1` (stereo not shown) [Menthol] it was “+”; in that of `CCCCCCCO` [1-Heptanol], “−”.
To `C=C1C=CCC(C)(C)C12CCC(C)O2` (stereo not shown) [Vitispirane] belongs “−”.
Regarding `CCCCCCC(CO)CCCC` (stereo not shown) [2-butyl-1-octanol], the “concentration … compared with wild type” value was “−”.
In the case of `CCCCCCCC/C=C\CCCCCCCCO` [Oleyl alcohol] it was “−−^c”; in that of `Cc1ccccc1O` [2-methyl-phenol], “−”.

For the origin of these results see patent US7223902B1, “Method of producing recombinant Aspergillus niger β-glucosidase and an aroma spreading plant” (Yissum Research Development Company of the Hebrew …, priority 1999, dated 2007).
